# Measurements as given in the supplement of paper PMC8728848.
# The other results are listed elsewhere or left out.
# B1: NK11 (Sus scrofa) (peptide)
# chain: KISKRILTGKK
# What was measured:
# Assay in all cases: glycan array binding signal (z-score within array); higher = stronger binding
# Settings in all cases: glycan notation: IUPAC condensed, linker removed
# [1] = molecular target: Gal(a1-3)Gal(b1-3)GlcNAc
# Outline: (§1)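 From the Consortium for Functional Glycomics database, 3228 arrays were curated, keeping only those whose protein sequence was available. Binding is given as a within-array Z-score averaged across arrays sharing a protein sequence and across linkers. Negative Z-scores can be read as non-binding.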
# [2] = molecular target: Gal(a1-3)Gal(b1-3)GlcNAc(b1-2)Man
# Outline: as §1
# [3] = molecular target: Gal(a1-3)Gal(b1-3)GlcNAc(b1-2)Man(a1-3)[Gal(a1-3)Gal(b1-3)GlcNAc(b1-2)Man(a1-6)]Man(b1-4)GlcNAc(b1-4)GlcNAc
# Outline: as §1
# [4] = molecular target: Gal(a1-3)Gal(b1-3)GlcNAc(b1-3)GalNAc
# Outline: as §1
# [5] = molecular target: Gal(a1-3)Gal(b1-3)GlcNAc(b1-6)GalNAc
# Outline: as §1
# [6] = molecular target: Gal(a1-3)Gal(b1-3)[Fuc(a1-4)]GlcNAc(b1-2)Man(a1-3)[Gal(a1-3)Gal(b1-3)[Fuc(a1-4)]GlcNAc(b1-2)Man(a1-6)]Man(b1-4)GlcNAc(b1-4)GlcNAc
# Outline: as §1
# [7] = molecular target: Gal(a1-3)Gal(b1-4)Glc
# Outline: as §1
# [8] = molecular target: Gal(a1-3)Gal(b1-4)GlcNAc
# Outline: as §1
# [9] = molecular target: Gal(a1-3)Gal(b1-4)GlcNAc(b1-2)Man
# Outline: as §1
# [10] = molecular target: Gal(a1-3)Gal(b1-4)GlcNAc(b1-2)Man(a1-3)[Gal(a1-3)Gal(b1-4)GlcNAc(b1-2)Man(a1-6)]Man(b1-4)GlcNAc(b1-4)GlcNAc
# Outline: as §1
# [11] = molecular target: Gal(a1-3)Gal(b1-4)GlcNAc(b1-3)GalNAc
# Outline: as §1
# [12] = molecular target: Gal(a1-3)Gal(b1-4)GlcNAc(b1-6)GalNAc
# Outline: as §1
# [13] = molecular target: Gal(a1-3)Gal(b1-4)[Fuc(a1-3)]GlcNAc
# Outline: as §1
# [14] = molecular target: Gal(a1-3)Gal(b1-4)[Fuc(a1-3)]GlcNAc(b1-2)Man(a1-3)[Gal(a1-3)Gal(b1-4)[Fuc(a1-3)]GlcNAc(b1-2)Man(a1-6)]Man(b1-4)GlcNAc(b1-4)GlcNAc
# Outline: as §1
# [15] = molecular target: Gal(a1-3)GalNAc
# Outline: as §1
# [16] = molecular target: Gal(a1-3)[Gal(a1-4)]Gal(b1-4)GlcNAc
# Outline: as §1
# [17] = molecular target: Gal(a1-4)Gal(b1-3)GlcNAc(b1-2)Man(a1-3)[Gal(a1-4)Gal(b1-3)GlcNAc(b1-2)Man(a1-6)]Man(b1-4)GlcNAc(b1-4)GlcNAc
# Outline: as §1
# [18] = molecular target: Gal(a1-4)Gal(b1-4)Glc
# Outline: as §1
# [19] = molecular target: Gal(a1-4)Gal(b1-4)GlcNAc
# Outline: as §1
# [20] = molecular target: Gal(a1-4)Gal(b1-4)GlcNAc(b1-2)Man(a1-3)[Gal(a1-4)Gal(b1-4)GlcNAc(b1-2)Man(a1-6)]Man(b1-4)GlcNAc(b1-4)GlcNAc
# Outline: as §1
# [21] = molecular target: Gal(a1-4)Gal(b1-4)GlcNAc(b1-3)Gal(b1-4)Glc
# Outline: as §1
# [22] = molecular target: Gal(a1-4)GlcNAc
# Outline: as §1
# [23] = molecular target: Gal(a1-6)Glc
# Outline: as §1
# [24] = molecular target: Gal(b1-2)Gal
# Outline: as §1
# [25] = molecular target: Gal(b1-3)Gal
# Outline: as §1
# [26] = molecular target: Gal(b1-3)Gal(b1-4)GlcNAc
# Outline: as §1
# [27] = molecular target: Gal(b1-3)Gal(b1-4)GlcNAc(b1-2)Man(a1-3)[Gal(b1-3)Gal(b1-4)GlcNAc(b1-2)Man(a1-6)]Man(b1-4)GlcNAc(b1-4)GlcNAc
# Outline: as §1
# [28] = molecular target: Gal(b1-3)GalNAc
# Outline: as §1
# [29] = molecular target: Gal(b1-3)GalNAc(a1-3)[Fuc(a1-2)]Gal(b1-4)Glc
# Outline: as §1
# [30] = molecular target: Gal(b1-3)GalNAc(a1-3)[Fuc(a1-2)]Gal(b1-4)GlcNAc
# Outline: as §1
binder,measurement,setting,value
B1,glycan array binding signal (z-score),[1],0.315
same,glycan array binding signal (z-score),[2],0.658
same,glycan array binding signal (z-score),[3],0.768
same,glycan array binding signal (z-score),[4],-0.454
same,glycan array binding signal (z-score),[5],-0.365
same,glycan array binding signal (z-score),[6],-0.06
same,glycan array binding signal (z-score),[7],-0.303
same,glycan array binding signal (z-score),[8],-0.302
same,glycan array binding signal (z-score),[9],-0.942
same,glycan array binding signal (z-score),[10],0.586
same,glycan array binding signal (z-score),[11],-0.218
same,glycan array binding signal (z-score),[12],-0.147
same,glycan array binding signal (z-score),[13],-0.402
same,glycan array binding signal (z-score),[14],0.809
same,glycan array binding signal (z-score),[15],-0.879
same,glycan array binding signal (z-score),[16],0.293
same,glycan array binding signal (z-score),[17],0.312
same,glycan array binding signal (z-score),[18],-0.486
same,glycan array binding signal (z-score),[19],-0.175
same,glycan array binding signal (z-score),[20],1.4
same,glycan array binding signal (z-score),[21],-0.642
same,glycan array binding signal (z-score),[22],-0.19
same,glycan array binding signal (z-score),[23],-0.674
same,glycan array binding signal (z-score),[24],-0.415
same,glycan array binding signal (z-score),[25],0.729
same,glycan array binding signal (z-score),[26],-0.706
same,glycan array binding signal (z-score),[27],-0.129
same,glycan array binding signal (z-score),[28],-0.322
same,glycan array binding signal (z-score),[29],-0.675
same,glycan array binding signal (z-score),[30],-0.444

# Fetched one by one from the list above:
binder,measurement,setting,value
B1,glycan array binding signal (z-score),[25],0.729
same,glycan array binding signal (z-score),[23],-0.674
